Earlier results on 1 molecule are cited in patent US12377072B2, “Modulators of GTPases and their use” (priority 2010, dated 2025).

For this series the following is noted: 10 mg/kg, within 3 h; cited from earlier work.

The structures appear in SMILES notation.

Consider `COc1ccc2cc([C@H](C)C(=O)O)ccc2c1` [S-naproxen], for which the plasma concentration is about 94 µM.
